The list is a part of this screen's results and no random one: it is rich in T/C values a quarter to a half above the control, in often repeated tests (any T/C) and in doses without a T/C. Further doses and runs are listed elsewhere. T/C gives the treated animals as a percentage of the vehicle group. Schedule codes are those of the source, read here as Q, the interval in days (D) or hours (H), X, the number of doses. Some entries hold several experiments; their values stand side by side, smallest first. Some T/C values are followed by the survivors on the day toxicity was checked, most often the fifth; where none is given, no animal had died by that day. Some entries give survivors of the animals treated and no T/C: the source files T/C as zero there, which appears to mark a toxic dose or a test without result, not a measured value. Survivors were counted at the toxicity check, usually on the fifth day, unless a day is given; later deaths do not show. Some schedules carry Z or #; the key to these is not given. Starred links: 1 amine or outer side, 2 acyl side, 3 side chain; linkers in the order of their positions; H or OH if unused. Positions of bridges follow the written chain, without caps; N, C: chain ends. Non-standard residues stand in square brackets, D forms with d. Residues, ends and D or L forms follow the SMILES beside them. Chains are numbered I, II in the order given. Actinocin(9to1) = Cc1c2oc3c(C)ccc(C(=O)[*:1])c3nc-2c(C(=O)[*:2])c(N)c1=O; aThr = C[C@H](O)[C@H](N)C(=O)O; NMeV = CN[C@H](C(=O)O)C(C)C; Sar = CNCC(=O)O
Test system: BDF1 mice, Adenocarcinoma 755 s.c., tumor weight T/C
Test: NCI In Vivo Anticancer Drug Screen. Data for tumor model Adenocarcinoma 755 (subcutaneous) in B6D2F1 (BDF1) mice
Conditions: T/C endpoint: mean tumor weight, higher T/C = larger tumour; for T/C: evaluated on day 12
Procedure, shortened: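 Values express treated (T) relative to vehicle-dosed control (C) animals, based on survival or tumour size measured after compound treatment of mice bearing a transplanted tumour.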

[1] = dose: 12.5 mg/kg/injection, schedule: Q01DX011 (ip), vehicle: saline
[2] = dose: 75.0 mg/kg/injection, schedule: Q01DX011 (ip), vehicle: methylcellulose (MC)
[3] = dose: 125.0 mg/kg/injection, schedule: Q01DX011 (ip), vehicle: methylcellulose (MC)
[4] = dose: 250.0 mg/kg/injection, schedule: Q01DX011 (ip), vehicle: methylcellulose (MC)
[5] = dose: 12.5 mg/kg/injection, schedule: Q01DX011 (ip), vehicle: methylcellulose (MC)
[6] = dose: 200.0 mg/kg/injection, schedule: Q01DX011 (ip), vehicle: saline

With `CS(=O)(=O)OCCC(=O)NCCNC(=O)CCOS(C)(=O)=O` the T/C [1] was 136 % of control and the survivor count [2] was 2 of 10.

`O=c1[nH]cc(N(CCCl)CCCl)c(=O)[nH]1` was tested, and the survivor count (dose: 1.67 mg/kg/injection, schedule: Q01DX011 (ip), vehicle: carboxymethylcellulose (CMC)) was 3 of 10.

In the case of `S=P(N1CCCCCC1)(N1CC1)N1CC1`, the survivor count (dose: 4.0 mg/kg/injection, schedule: Q01DX011 (ip), vehicle: carboxymethylcellulose (CMC)) is reported as 3 of 10, the survivor count (dose: 27.0 mg/kg/injection, schedule: Q01DX011 (ip), vehicle: methylcellulose (MC)) is reported as 4 of 10 and the survivor count (dose: 60.0 mg/kg/injection, schedule: Q01DX011 (ip), vehicle: carboxymethylcellulose (CMC)) is reported as 0 of 10. The survivor count (dose: 81.0 mg/kg/injection, schedule: Q01DX011 (ip), vehicle: saline) was 2 of 10.

With `Cn1c(=O)c2c(nc(Cl)n2CCl)n(C)c1=O` the survivor count [2] was 3 of 10.

For `O=C(CCCl)N1CCN(C(=O)CCCl)CC1`, the survivor count (dose: 263.0 mg/kg/injection, schedule: Q01DX011 (ip), vehicle: methylcellulose (MC)) was 3 of 10 and the survivor count (dose: 350.0 mg/kg/injection, schedule: Q01DX011 (ip), vehicle: methylcellulose (MC)) was 1 of 10 and 4 of 10.

In the case of `CC(C)Cn1cnc2c(SCc3ccccn3)nc(N)nc21`, the survivor count (dose: 200.0 mg/kg/injection, schedule: Q01DX011 (ip), vehicle: methylcellulose (MC)) is reported as 2 of 10.

With `CS(=O)(=O)OCC1OC(O)CC1O` (configuration not stated) the T/C (dose: 225.0 mg/kg/injection, schedule: Q01DX011 (ip), vehicle: saline) was 136 % of control [9 of 10 alive].

With `O=C(Nc1ccc(C2=NCCN2)cc1)c1ccc(N=Nc2ccc(C(=O)Nc3ccc(C4=NCCN4)cc3)cc2)cc1` the T/C (dose: 60.0 mg/kg/injection, schedule: Q01DX011 (ip), vehicle: methylcellulose (MC)) was 129 % of control.

`O=c1[nH]c(=O)n(C2CC(O)C(CO)O2)cc1I` (configuration not stated) was tested, and the survivor count (dose: 250.0 mg/kg/injection, schedule: Q01DX011 (ip), vehicle: carboxymethylcellulose (CMC)) was 5 of 10, the survivor count (dose: 500.0 mg/kg/injection, schedule: Q01DX011 (ip), vehicle: carboxymethylcellulose (CMC)) was 0 of 10 and the survivor count (dose: 1000.0 mg/kg/injection, schedule: Q01DX011 (ip), vehicle: carboxymethylcellulose (CMC)) was 0 of 10.

For `CCC(C)Cn1cnc2c(=O)[nH]c(N)nc21` (configuration not stated), the survivor count (dose: 300.0 mg/kg/injection, schedule: Q01DX011 (ip), vehicle: methylcellulose (MC)) was 4 of 10.

For `Cc1cnc(SCc2ccc(Cl)cc2Cl)nc1Nc1ccc(Cl)c(Cl)c1`, the survivor count [3] was 6 of 10 and the survivor count [4] was 5 of 10.

`Cc1c2oc3c(C)ccc(C(=O)N[C@@H]4C(=O)N[C@H](C(C)C)C(=O)N5CCC[C@H]5C(=O)N(C)CC(=O)N(C)[C@@H](C(C)C)C(=O)O[C@H]4C)c3nc-2c(C(=O)N[C@@H]2C(=O)N[C@H](C(C)C)C(=O)N3CCC[C@H]3C(=O)N(C)CC(=O)N(C)[C@@H](C(C)C)C(=O)O[C@H]2C)c(N)c1=O` (I: [aThr][dV]P[Sar][NMeV] / II: [aThr][dV]P[Sar][NMeV]; ester I:1-I:C, II:1-II:C; linker I:N-II:N via Actinocin(9to1)) was tested, and the T/C (dose: 0.01 mg/kg/injection, schedule: Q01DX011 (ip), vehicle: carboxymethylcellulose (CMC)) was 125 and 131 % of control, the survivor count (dose: 0.05 mg/kg/injection, schedule: Q01DX011 (ip), vehicle: carboxymethylcellulose (CMC)) was 1 of 10 and the survivor count (dose: 0.05 mg/kg/injection, schedule: Q01DX011 (ip), vehicle: saline) was 0 of 10. The survivor count (dose: 80.0 micrograms/kg/injection, schedule: Q01DX011 (ip), vehicle: carboxymethylcellulose (CMC)) was 4 of 10 and the survivor count (dose: 95.0 micrograms/kg/injection, schedule: Q01DX011 (ip), vehicle: carboxymethylcellulose (CMC)) was 2 of 10.

In the case of `Cc1ccc(N2CCN(CCCN3CCN(c4ccc(Cl)cc4)CC3)CC2)cc1`, the survivor count [5] is reported as 4 of 10 and the survivor count (dose: 25.0 mg/kg/injection, schedule: Q01DX011 (ip), vehicle: methylcellulose (MC)) is reported as 5 of 10.

In the case of `O=C1CN(/N=C\c2ccc([N+](=O)[O-])o2)C(=O)N1`, the survivor count (dose: 50.0 mg/kg/injection, schedule: Q01DX011 (ip), vehicle: methylcellulose (MC)) is reported as 4 of 10 and the survivor count (dose: 64.2 mg/kg/injection, schedule: Q01DX011 (ip), vehicle: carboxymethylcellulose (CMC)) is reported as 3 of 10 and 6 of 10.

For `CCNc1ncnc2c1cnn2C1CCCO1` (configuration not stated), the survivor count (dose: 1.5 mg/kg/injection, schedule: Q01DX011 (ip), vehicle: methylcellulose (MC)) was 6 of 10 and the survivor count [5] was 6 of 10.

For `CCC1CN1P(=O)(Oc1cccc2ccccc12)N1CC1CC` (configuration not stated), the survivor count (dose: 175.0 mg/kg/injection, schedule: Q01DX011 (ip), vehicle: carboxymethylcellulose (CMC)) was 6 of 10, the survivor count (dose: 350.0 mg/kg/injection, schedule: Q01DX011 (ip), vehicle: carboxymethylcellulose (CMC)) was 0 of 10 and the survivor count (dose: 700.0 mg/kg/injection, schedule: Q01DX011 (ip), vehicle: carboxymethylcellulose (CMC)) was 0 of 10. The T/C (dose: 700.0 mg/kg/injection, schedule: Q01DX011 (ip), vehicle: methylcellulose (MC)) was 137 % of control [9 of 10 alive].

In the case of `Cc1ncc(CO)c(C)c1O`, the T/C (dose: 29.53 mg/kg/injection, schedule: Q01DX011 (ip), vehicle: carboxymethylcellulose (CMC)) is reported as 134 % of control [9 of 10 alive], the survivor count (dose: 62.5 mg/kg/injection, schedule: Q01DX011 (ip), vehicle: methylcellulose (MC)) is reported as 1 of 10 and the survivor count [6] is reported as 4 of 10. The survivor count [4] was 2 of 10, the survivor count (dose: 300.0 mg/kg/injection, schedule: Q01DX011 (ip), vehicle: saline) was 0 of 10 and the survivor count (dose: 400.0 mg/kg/injection, schedule: Q01DX011 (ip), vehicle: saline) was 0 of 10.

`CN(C)c1ccc(/C=C/C2=[N+](C)c3ccccc3C2(C)C)cc1` was tested, and the survivor count (dose: 4.0 mg/kg/injection, schedule: Q01DX011 (ip), vehicle: other) was 1 of 10.

With `O=C(OCC1OC(n2cnc3c(=O)[nH]c(=O)[nH]c32)C(OC(=O)c2ccccc2)C1OC(=O)c1ccccc1)c1ccccc1` (configuration not stated) the T/C (dose: 120.0 mg/kg/injection, schedule: Q01DX011 (ip), vehicle: carboxymethylcellulose (CMC)) was 130 % of control.

`N#Cc1cn(Cc2ccco2)c(=O)[nH]c1=O` was tested, and the survivor count [3] was 6 of 10.

`CCN(CC)P(=O)(N1CC1)N1CC1` was tested, and the survivor count (dose: 16.0 mg/kg/injection, schedule: Q01DX011 (ip), vehicle: other) was 2 of 10.

With `CCCCNc1cc(=O)[nH]c(N)n1` the survivor count (dose: 165.0 mg/kg/injection, schedule: Q01DX011 (ip), vehicle: methylcellulose (MC)) was 6 of 10.

With `CCc1c(Cl)nc(N)nc1Nc1ccccc1C` the T/C (dose: 31.0 mg/kg/injection, schedule: Q01DX011 (ip), vehicle: methylcellulose (MC)) was 125 % of control.

With `O=P1(N(CCCl)CCCl)NCCCO1` (configuration not stated) the survivor count (dose: 100.0 mg/kg/injection, schedule: Q01DX011 (ip), vehicle: saline) was 4 of 10 and the survivor count [6] was 0 of 10.

In the case of `CCCCCCOP(=O)(N1CC1C)N1CC1C` (configuration not stated), the survivor count [1] is reported as 5 of 10.

`O=C([O][Hg][CH2]C1CC(O)CC([CH2][Hg][O]C(=O)c2ccccc2)O1)c1ccccc1` (configuration not stated) was tested, and the survivor count (dose: 100.0 mg/kg/injection, schedule: Q01DX011 (ip), vehicle: carboxymethylcellulose (CMC)) was 2 of 10 and the survivor count (dose: 200.0 mg/kg/injection, schedule: Q01DX011 (ip), vehicle: carboxymethylcellulose (CMC)) was 0 of 10.

In the case of `Cc1c2ccccc2c(C)c2c1ccc1ccccc12`, the survivor count (dose: 76.0 mg/kg/injection, schedule: Q01DX011 (ip), vehicle: carboxymethylcellulose (CMC)) is reported as 4 of 10.

For `SCc1ccccn1`, the T/C (dose: 75.5 mg/kg/injection, schedule: Q01DX011 (ip), vehicle: carboxymethylcellulose (CMC)) was 136 % of control [8 of 10 alive] and the T/C (dose: 150.0 mg/kg/injection, schedule: Q01DX011 (ip), vehicle: carboxymethylcellulose (CMC)) was 128 % of control [9 of 10 alive].

For `CC(C)=NOC(N)=O`, the T/C (dose: 50.0 mg/kg/injection, schedule: Q01DX011 (ip), vehicle: water) was 137 % of control.

`OB(O)O` was tested, and the survivor count (dose: 1000.0 mg/kg/injection, schedule: Q#A X022 (oral), vehicle: water) was 6 of 10 and the survivor count (dose: 1250.0 mg/kg/injection, schedule: Q#A X022 (oral), vehicle: water) was 3 of 10.
